Source: publication PMC6582506

How the values were obtained:
Assay in all cases: two-hybrid; pGADT7-FtMYB8 prey and pGBKT7 bait constructs co-transformed into yeast AH109; growth on SD/-Leu-Trp-His-Ade plates (reporters ADE2 and HIS3)
[1] = molecular target: T1, AtTT8 (Arabidopsis thaliana) (UniProt Q9FT81)
T1 sequence: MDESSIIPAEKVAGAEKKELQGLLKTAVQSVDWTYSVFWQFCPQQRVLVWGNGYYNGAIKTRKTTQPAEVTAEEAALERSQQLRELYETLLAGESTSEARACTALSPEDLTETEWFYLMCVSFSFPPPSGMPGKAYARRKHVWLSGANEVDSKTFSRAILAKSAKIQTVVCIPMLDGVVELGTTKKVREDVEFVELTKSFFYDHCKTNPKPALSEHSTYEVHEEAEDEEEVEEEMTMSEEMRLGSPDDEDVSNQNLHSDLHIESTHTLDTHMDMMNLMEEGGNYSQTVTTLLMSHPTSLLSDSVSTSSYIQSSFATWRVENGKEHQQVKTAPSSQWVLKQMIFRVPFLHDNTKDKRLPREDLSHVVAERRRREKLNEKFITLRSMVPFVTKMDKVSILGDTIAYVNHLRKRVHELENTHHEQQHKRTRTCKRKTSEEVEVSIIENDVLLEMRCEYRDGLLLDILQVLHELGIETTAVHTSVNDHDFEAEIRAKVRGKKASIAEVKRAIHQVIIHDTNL

[2] = molecular target: T2, AtGL3 (Arabidopsis thaliana) (UniProt Q9FN69)
T2 sequence: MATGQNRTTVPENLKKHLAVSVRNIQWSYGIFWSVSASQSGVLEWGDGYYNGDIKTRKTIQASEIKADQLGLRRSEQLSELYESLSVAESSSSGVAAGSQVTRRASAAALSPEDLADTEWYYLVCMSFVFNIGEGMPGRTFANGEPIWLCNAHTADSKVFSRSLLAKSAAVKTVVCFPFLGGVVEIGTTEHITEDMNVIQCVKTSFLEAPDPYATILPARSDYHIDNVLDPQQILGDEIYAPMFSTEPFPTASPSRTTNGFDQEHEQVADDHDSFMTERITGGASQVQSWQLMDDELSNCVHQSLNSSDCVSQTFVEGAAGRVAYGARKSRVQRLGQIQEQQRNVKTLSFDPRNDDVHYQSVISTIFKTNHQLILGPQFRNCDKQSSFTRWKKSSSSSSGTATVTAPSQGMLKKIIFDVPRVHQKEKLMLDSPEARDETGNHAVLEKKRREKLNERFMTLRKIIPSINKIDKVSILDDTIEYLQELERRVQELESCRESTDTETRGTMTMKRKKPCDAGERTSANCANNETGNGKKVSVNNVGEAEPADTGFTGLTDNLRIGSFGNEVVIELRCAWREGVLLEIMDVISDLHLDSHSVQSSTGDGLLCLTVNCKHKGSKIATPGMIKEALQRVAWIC

[3] = molecular target: T3, AtEGL3 (Arabidopsis thaliana) (UniProt Q9CAD0)
T3 sequence: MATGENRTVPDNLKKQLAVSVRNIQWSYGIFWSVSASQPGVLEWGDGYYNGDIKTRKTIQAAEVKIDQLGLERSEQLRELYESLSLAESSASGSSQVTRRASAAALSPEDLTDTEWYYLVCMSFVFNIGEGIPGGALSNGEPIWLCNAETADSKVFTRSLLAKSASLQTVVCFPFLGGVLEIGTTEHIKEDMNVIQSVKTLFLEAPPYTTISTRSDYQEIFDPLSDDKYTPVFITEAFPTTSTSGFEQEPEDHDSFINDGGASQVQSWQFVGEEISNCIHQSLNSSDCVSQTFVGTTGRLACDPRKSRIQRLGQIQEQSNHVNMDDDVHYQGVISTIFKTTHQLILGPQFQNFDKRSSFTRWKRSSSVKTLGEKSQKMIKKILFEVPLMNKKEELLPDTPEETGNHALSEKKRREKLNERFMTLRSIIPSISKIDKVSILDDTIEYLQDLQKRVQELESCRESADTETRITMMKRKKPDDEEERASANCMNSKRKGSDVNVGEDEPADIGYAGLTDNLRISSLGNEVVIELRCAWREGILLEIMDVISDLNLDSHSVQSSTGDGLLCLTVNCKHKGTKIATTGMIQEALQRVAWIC

Substance: FtMYB8 (from UniProt A0A4P2UPY7)
- binding [1]: binds
- binding [2]: no binding
- binding [3]: no binding

These are yes or no findings as the source states them, for the method shown. For part of these data: Binding can be weak; no strength is given.
